In PubChem BioAssay AID493014 (National Center for Advancing Translational Sciences (NCATS), 2011) one finds AC50 data, which are given here for 67 molecules.

Molecules are shown by their SMILES. The list shows a part of the results. Shown are side measurements of this screen, not its main read-out; they come without a call. Compounds called inactive in the main read-out are mostly missing here. The note in brackets gives the kind of curve behind each potency; many fits are weak.

Usually AC50 stands for the concentration at which the activity in the assay is half-maximal.

The assay in a line: qHTS Assay to Find Inhibitors of Chronic Active B-Cell Receptor Signaling. To be noted: ABC-DLBCL IkBa-CBG/CBR reporter, luminescence ratio (green luciferase fused to IkBa over red control in TMD8 lymphoma cells), 4 h. The method in brief:
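TMD8 human ABC-DLBCL cells with doxycycline-inducible IκBα–green luciferase fusion and unfused red luciferase, in 0.5% FBS medium; compounds up to 46 uM, 4 h at 37C. Green/red luminescence ratio, filter-overlap corrected, fitted to concentration-response curves.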
In general terms: Quantitative high-throughput screening tests each substance at several concentrations.

[1] abbreviates: measured here: CBR red luminescence, cell number.
Setting [2] is: measured here: IkBa-CBG green luminescence.

Take `Cc1cnn(-c2ccc3nnc(-c4ccc(Br)cc4)n3n2)c1`: the AC50 under setting [1] was 0.206 µM [falling, full curve].

With `Nc1ccc(S(=O)(=O)Nc2nccc(/C=C/c3ccccc3F)n2)cc1`, the AC50 under setting [1] is 14.1 µM [rising, partial curve, poor fit].

Turning to `CC(=O)c1cc2c(cc1NC(=O)CN1CCN(c3cccc(C(F)(F)F)c3)CC1)OCO2`, under setting [1], the AC50 is 7.31 µM [rising, partial curve, poor fit]. Still for that read-out and setting: the figure for `CN(C1CCCCC1)S(=O)(=O)c1ccc(=S)[nH]c1` is 18.4 µM [falling, partial curve]. The same measure, in the same setting: with `COc1cc(OC)cc(C(=O)Nc2ccccc2C(=O)NCc2cccnc2)c1` the figure was 7.94 µM [falling, partial curve]. Consider `CCOC(=O)C(C)/C(C)=N/NC(N)=S` (centres undefined), for which the AC50 reads like this: under setting [1], 16.4 µM [falling, partial curve]; under setting [2], 16.4 µM [falling, partial curve].

Take `Cc1ccc(S(=O)(=O)Nc2ncc(C(F)(F)F)cc2Cl)cc1`: the concentration at half-maximal activity (AC50) under setting [1] was 35.5 µM [falling, single point]. On the same count and under the same terms, the figure for `COCc1cc(C)nc(OCC(=O)N/N=C/c2ccc(O)cc2O)c1C#N` is 17.8 µM [falling, single point]; for `Nc1c(C(=O)CSc2nncn2-c2ccccc2)c(=O)[nH]c(=O)n1C1CC1` it is 20.6 µM [rising, partial curve, poor fit]. The same measure, in the same setting: with `O=C(O)c1ccc(NC(=O)C2C3CCC(O3)C2C(=O)O)cc1` (centres undefined) the figure was 17.8 µM [rising, partial curve, poor fit]; with `O=C1N=c2ccccc2=C1c1sc(Nc2ccc(O)cc2)nc1O`, 11.2 µM [falling, partial curve]. The same measure, in the same setting: the figure for `O=C(Nc1ccc2c(c1)ncn2-c1ccccc1)c1ccco1` is 29.1 µM [falling, single point]. For the molecule `O=C(CCN=C1NS(=O)(=O)c2ccccc21)OCc1nnc(-c2ccccc2)o1`, under setting [1], the AC50 is 32.6 µM [falling, partial curve, poor fit]. Still for that read-out and setting: with `CCCn1c(NCc2ccc3c(c2)OCO3)nc2ccccc21` the figure was 6.51 µM [rising, single point]; with `Cc1ccc(-n2ncc3c(N4CCN(CCO)CC4)ncnc32)cc1Cl`, 3.98 µM [falling, partial curve, poor fit]; with `COc1ccc(C2C(=O)c3ccccc3C2=O)cc1`, 0.731 µM [rising, full curve, poor fit]. On the same count and under the same terms, the figure for `O=C(Nc1cccnc1)c1ccccc1O` is 5.17 µM [falling, partial curve]; for `COc1ccc(-c2cc(=O)c3cc(OC)c(OC)cc3[nH]2)cc1` it is 36.6 µM [rising, single point]; for `CC(=O)c1c(C)[nH]c(C(=O)NCC2CCCCC2)c1C` it is 10 µM [rising, partial curve, poor fit]. On the same count and under the same terms, with `CSc1cccc(NC(=O)c2ccccc2N(C)S(C)(=O)=O)c1` the figure was 0.651 µM [rising, partial curve, poor fit]; with `O=C(Nc1nnc(CCc2ccccc2)s1)C1CCCO1` (centres undefined), 0.291 µM [rising, single point]. With `CCOc1ccc2c(c1)n(CO)c(=S)n2CO`, the AC50 under setting [1] was 0.82 µM [rising, full curve, poor fit]. Still for that read-out and setting: with `CCCC(=O)NC(c1ccco1)c1cc(Cl)c2cccnc2c1O` (centres undefined) the figure was 18.4 µM [falling, partial curve, poor fit]; with `O=C(CNC(=O)c1cccs1)OCc1ccc(Cl)cc1`, 7.08 µM [rising, partial curve]; with `CC(=O)C1=C(C)NC(SCC(=O)c2ccc(Cl)c(Cl)c2)=C(C#N)C1c1ccco1` (centres undefined), 7.08 µM [falling, full curve]. Same read-out and setting: the figure for `C=CCN1C(=O)[C@]2(c3ccccc31)C1CCCC=C1C(C#N)=C(N)C2(C#N)C#N` (some centres undefined) is 35.5 µM [falling, single point]; for `CC(C)N(C)CCOC(=O)c1ccccc1Cl` it is 14.6 µM [rising, partial curve, poor fit].

`Cc1ccnc(NC(=O)c2ccc(Cl)c([N+](=O)[O-])c2)c1`: under setting [1], the concentration at half-maximal activity (AC50) is 20 µM [falling, single point].

As to `O=C(CCCCCN1C(=O)[C@@H]2Cc3ccccc3CN2C1=O)Nc1ccccc1Cl`, under setting [1], the AC50 was 8.91 µM [falling, partial curve].

In the case of `CCCC(C)C(=O)Nc1nc(C)c(-c2csc(Nc3cc(Cl)ccc3C)n2)s1` (centres undefined), the half-maximal activity concentration (AC50) under setting [1] is 3.98 µM [falling, full curve]. Regarding `Cc1c(Cl)cccc1NC(=S)N1CCCN(Cc2ccccc2F)C1`, under setting [1], the AC50 is 20 µM [falling, single point]. Still for that read-out and setting: with `COc1cc(NC(=O)Cn2cnc(C(=O)Nc3ccc(C)c(C)c3)n2)cc(OC)c1OC` the figure was 1.3 µM [rising, full curve, poor fit]. Consider `COc1ccc(NC(=O)C2CCCN2S(=O)(=O)c2cccc3cccnc23)cc1OC` (centres undefined), for which the half-maximal activity concentration (AC50) was 3.16 µM [rising, full curve, poor fit] under setting [1] and 4.47 µM [falling, partial curve] under setting [2]. `O/N=C1\CCCC\C1=C/c1ccccc1`: the concentration at half-maximal activity (AC50) under setting [1] was 20.6 µM [rising, partial curve, poor fit]. Turning to `O=C(CCc1nnc(CCCCc2ccccc2)o1)NCc1cc(F)ccc1F`, the AC50 under setting [1] was 1.58 µM [rising, partial curve, poor fit].

As to `Cc1cccn2c(=O)c3cc(C(=O)NC4CCCC4)n(C)c3nc12`, the AC50 under setting [1] is 0.562 µM [rising, full curve]. The same measure, in the same setting: the figure for `COc1ccc2nc(NC(=O)c3ccccc3O)sc2c1` is 0.562 µM [falling, full curve]. With `COc1ccccc1NC(=O)C(=O)NNC(=O)c1ccco1`, under setting [1], the AC50 is 3.16 µM [falling, full curve]. As for `FC(F)(F)c1cccc(Nc2nc(N3CCOCC3)nc(N3CCOCC3)n2)c1`, the AC50 under setting [1] is 35.5 µM [rising, single point].

Regarding `O=S(=O)(NCc1ccccc1)c1ccc(F)cc1Br`, the concentration at half-maximal activity (AC50) under setting [1] was 6.31 µM [rising, single point].

For `O=[N+]([O-])c1cccc2ccc(/C=C/c3ccc(F)cc3)nc12`, the AC50 under setting [1] is 0.58 µM [rising, full curve]. Consider `Cc1cccc(-c2noc(Cc3ccccc3)n2)c1`, for which the AC50 under setting [1] was 1.26 µM [rising, partial curve].

Turning to `CCOC(=O)c1ccc(NC(=O)C2COc3ccccc3O2)cc1` (centres undefined), the AC50 under setting [1] is 17.8 µM [rising, partial curve]. The same measure, in the same setting: the figure for `COc1ccc(NC(=O)c2cc(Br)c(Br)s2)cn1` is 14.1 µM [falling, partial curve]. Still for that read-out and setting: with `Cc1cccc(NC(=O)/C=C/c2cccs2)n1` the figure was 2 µM [falling, partial curve, poor fit].

As to `CCCn1nc(NC(=O)C(C)(C)C)c2cc3cc(OC)ccc3nc21`, the AC50 under setting [1] is 20 µM [falling, single point].

In the case of `CCOC(=O)c1c(S(=O)(=O)NCC(=O)Nc2ccc(C)c(Cl)c2)c(C)n(C)c1C`, under setting [1], the concentration at half-maximal activity (AC50) was 15.8 µM [falling, partial curve, poor fit]. The same measure, in the same setting: with `CCCCOC(=O)c1ccc(NC(C)=O)cc1` the figure was 8.91 µM [rising, partial curve, poor fit]; with `NCC(c1ccccc1Cl)c1c[nH]c2ccccc12` (centres undefined), 15.8 µM [falling, single point]; with `Clc1ccc(Nc2nc(-c3cccs3)cs2)nc1`, 4.11 µM [falling, full curve].

On to `COCCCNC(=S)N(Cc1cccnc1)Cc1ccc(OC)c(OC)c1`, for which the AC50 under setting [1] is 16.4 µM [rising, partial curve, poor fit].

Consider `O=C(Nc1cccnc1)c1cc(-c2ccc3c(c2)OCO3)on1`, for which, under setting [1], the AC50 was 2.82 µM [falling, full curve].

With `CN(CC#CC(O)(c1ccccc1)c1ccccc1)C(C)(C)C`, the AC50 under setting [1] is 2.82 µM [falling, full curve, poor fit].

For the molecule `Nc1ccc(S(N)(=O)=O)cc1N`, the AC50 under setting [1] is 0.794 µM [rising, full curve]. As to `Cc1cccc2c1-c1sc(C(=O)Nc3cccnc3)cc1CO2`, the AC50 under setting [1] was 10 µM [falling, partial curve, poor fit]. On the same count and under the same terms, the figure for `O=c1[nH]c2cc3c(cc2cc1CN(CCc1ccccc1)Cc1nnnn1CC1CCCO1)OCO3` (centres undefined) is 0.231 µM [falling, full curve, poor fit]; for `C/C(N)=C(/C#N)C(=O)CSc1cc(C)c2ccccc2n1` it is 2.82 µM [falling, full curve]. With `CN1CCCNc2nc3ccccc3nc21`, under setting [1], the half-maximal activity concentration (AC50) is 7.08 µM [falling, partial curve, poor fit]. Consider `CC(=O)c1ccc(N/C=C\C(=O)c2ccc(C)cc2)cc1`, for which the AC50 under setting [1] was 3.16 µM [rising, full curve, poor fit]. Regarding `COc1ccccc1C(=O)NC(=S)N1CCc2ccccc21`, the AC50 under setting [2] is 12.6 µM [falling, single point]. In the case of `c1ccc(N2CCN(c3ncnc4[nH]ncc34)CC2)cc1`, the AC50 under setting [1] is 5.62 µM [rising, single point].

Turning to `CC1CCc2c(sc(NC(=O)c3ccco3)c2C(=O)O)C1` (centres undefined), under setting [1], the AC50 is 0.398 µM [falling, full curve]. Still for that read-out and setting: with `COc1ccccc1N/C=C1/Sc2cc(Cl)ccc2NC1=O` the figure was 0.794 µM [falling, partial curve, poor fit]; with `CCN(CC(=O)Nc1ccc(NC(C)=O)cc1)C(=O)COc1ccccc1-c1ccccc1`, 29.1 µM [falling, single point]. On the same count and under the same terms, the figure for `COc1ccccc1CN1CCN(C(CC(C)C)c2nnnn2Cc2cccs2)CC1` (centres undefined) is 16.4 µM [falling, partial curve, poor fit]; for `c1ccc(N2CCN(C3CCSC3)CC2)cc1` (centres undefined) it is 32.6 µM [rising, single point]; for `CC(NC(=O)Nc1ccccc1O)(C(F)(F)F)C(F)(F)F` it is 3.26 µM [falling, partial curve].
